Source: patent US6573258B2, “Photodynamic porphyrin antimicrobial agents” (Frontier Scientific, Inc., priority 2000, dated 2003)
Some entries share one result that the patent states for a list of compounds. At least one structure is not confirmed: it was looked up by name or label, or the drawing left a doubt.

Tested on: E. coli cells
Assay: Dark toxicity of porphyrins on bacteria cells
Assay type: cell-based, Escherichia coli
Conditions: 10 μM, incubation in the dark
Method: The toxic effects of T4MPyP and its analogues on E. coli and S. aureus cells were evaluated by measuring the extent of growth inhibition (bacteriostatic effect) and reduction of survival (cytocidal/bacteriocidal effect) following treatment with porphyrin in the dark or upon light exposure.
In all cases, 5 ml of the cell suspension (10^8-10^9 cells/ml) were incubated for 5 min in the dark at room temperature with the selected photosensitizer at concentrations ranging between 0.5 and 10 μM. After dark-incubation, some of the cell samples were irradiated with white light (150 mW/cm^2). During irradiation, (up to 30 min) the cells were kept at 37° C. and magnetically stirred. The treated and untreated control cells were diluted with BHI and maintained at 37° C. while the absorbance of the suspension at 650 nm was monitored at predetermined time periods for determining growth curves. The percent of growth inhibition in the treated cells was calculated by the following equation: […]
where AX, and AC are the absorbances measured after 3 h incubation, respectively, for the treated and control cell suspensions, respectively, while A0 represents the initial absorbance and the AC is that of the control cell suspension after 5 hours incubation. […]

Row | SMILES | decrease in cell survival in the dark
1 | CCCCCCCCCCCCCC[n+]1ccc(-c2c3nc(c(-c4cc[n+](C)cc4)c4ccc([nH]4)c(-c4cc[n+](C)cc4)c4nc(c(-c5cc[n+](C)cc5)c5ccc2[nH]5)C=C4)C=C3)cc1.Cl.Cl.[Cl-].[Cl-].[Cl-].[Cl-] [Porphyrin C14, 5-(4-N-tetradecylpyridyl)-10,15,20-tris(4-N-methylpyridyl)-21H,23H-porphine tetrachloride dihydrochloride salt] | less than 2 logs
2 | CCCCCCCCCCCCCCCCCC[n+]1ccc(-c2c3nc(c(-c4cc[n+](C)cc4)c4ccc([nH]4)c(-c4cc[n+](C)cc4)c4nc(c(-c5cc[n+](C)cc5)c5ccc2[nH]5)C=C4)C=C3)cc1.Cl.Cl.[Cl-].[Cl-].[Cl-].[Cl-] [Porphyrin C18, 5-(4-N-octadecylpyridyl)-10,15,20-tris(4-N-methylpyridyl)-21H,23H-porphine tetrachloride dihydrochloride salt] | less than 2 logs
